Data from patent US20030223996A1 (published 2003).
Where a chain is given by its changes, count along the chain named. These are yes or no findings as the source states them, for the method shown. Some entries that bind do so weakly or less than the wild type.

Chains of the proteins cited; added tags and fusions are not shown. Residues count along the entry.
UniProt Q9WU72, residues 127-309: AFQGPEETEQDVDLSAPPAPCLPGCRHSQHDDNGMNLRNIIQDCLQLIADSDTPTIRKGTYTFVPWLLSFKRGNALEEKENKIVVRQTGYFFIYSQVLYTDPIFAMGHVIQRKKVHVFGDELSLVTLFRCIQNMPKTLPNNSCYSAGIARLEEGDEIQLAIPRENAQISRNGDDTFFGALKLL

Molecular target: mouse BLyS (mouse) (UniProt Q9WU72)
Test: phage ELISA

B1: I029D07 (scFv)
scFv: QVQLQQSGAEVKKPGSSVKVSCKASGYTFTKYTMHWVRQAPGQGPEWMGWINGGSGDTKYSRKFQGRVTITKDTSASAAYMELSSLGSEDTALYYCARATYDPLTGYSFDGFDIWGQGTLVTVSSGGGGSGGGGSGGGGSQSVLTQPASVSGSPGQSITISCTGTSSDVGGYNYVSWYQQHPGKAPKLMIYDVSKRPSGVPDRFSGSKSGNTASLTISGLQAEDEGDYYCSSYAGPSRVFGGGTKVEIKR
  binding: binds

B2: I061E07 (scFv)
scFv: QVQLQQSGAEVKKTGASVKVSCKASGYIFADYYVHWVRQAAGQGLEWMGWINPNTGSTKYAQKFQDRVTMTRDTSIKTVYMELRRLRSDDTALYYCARATYDPLTGYSFDGFDIWGKGTMVTVSSGGGGSGGGGSGGGGSQSVLTQPPSASGTPGQRVTISCSGSSSNIGSNTVNWYQRLPGAAPQLLIYNNDQRPSGIPDRFSGSKSGTSGSLVISGLQSEDEADYYCASWDDSLNGRVFGGGTKLTVLG
  binding: binds

B3: I006D07 (scFv)
scFv: EVQLVESGGGVVQPGGSLRLSCAASGFTVNSYAMHWVRQAPGKGLQWVAVIPYDGSKKYYADSVKGRFTVSRDNSKNTLYLQMNSLRAEDTAVYYCARSHYDILTGLNYWYFDLWGRGTLVTVSSGGGGSGGGGSGGGGSSELTQDPAVSVALGQTVRITCQGDSLRSYYASWYQQKPGQAPVLVIYGKNNRPSGIPDRFSGSSSGNTASLTITGAQAEDEADYYCNSRGSSGNHVVFGGGTKLTVLG
  binding: binds

B4: I017D10 (scFv)
scFv: RVQLVQSGAEVKKPGASVKVSCKASGYTFTSDHISWVRQAPGQGLEWMGWISPHHGKTNYAQKLQGRVTMTTDTSTSTAYMELRSLRSDDTAVYYCARVQMDSEYYDLLTGINVGPYYFDYWGKGTLVTVSSGGGGSGGGGSGGGGSSELTQDPAVSVALGQTVRITCQGDSLRSYYASWYQQKPGQAPVLVIYGKNNRPSGIPDRFSGSSSGNTASLTITGAQAEDEADYYCNSRDSSGNHVVFGGGTKLTVLG
  binding: binds

B5: I007B03 (scFv)
scFv: GVQLQQSGAEVKKPGSSVKVSCKASGGTFNTSGITWVRQAPGQGLEWMGWMNPNTGDTAYAQEFQGRVIMTRDTSISTAYMELSSLRSEDTAVYYCARDGSYDILTGYYIDNYMDVWGQGTMVTVSSGGGGSGGGGSGGGGSQSVLTQPASVSGSPGQSITISCTGTSSDVGGYNYVSWYQQHPGKAPKLMIYEGSKRPSGVSNRFSGSKSGNTASLTISGLQAEDEADYYCSSYTTRSTRVFGGGTKLTVLG
  binding: binds

B6: I018C10 (scFv)
scFv: GVQLVQSGPEVKKPGASVKVSCTASGYTFTSYGVSWVRQAPGQGLEWIGWISAHNGQTKYAEKFQGRVTMTRNTSISTAYMELSSLRSEDTVVYYCARDGSYDILTGYYIDNYMDVWGKGTMVTVSSGGGGSGGGGSGGGGSSELTQDPAVSVALGQTVRITCQGDSLRSYYTNWFQQKPGQAPLLVVYAKNKRPSGIPDRFSGSSSGNTASLTITGAQAEDEADYYCHSRDSSGNHVLFGGGTKLTVLG
  binding: binds

B7: I001C09 (scFv)
scFv: B6 scFv with V92A
  binding: binds

B8: I018D07 (scFv)
scFv: B6 scFv with K19I, V92A
  binding: binds

B9: I022D01 (scFv)
scFv: EVNLRESGGGVDQPGRSLRLSCAASGFTFSSYGMHWVRQAPGKGLEWVAVISYDGSNKYYADSVKGRFTISRDNSKNTLYLQMNSLRAEDTAVYYCAKDGYYDILTGYSYYGMDVWGQGPMVAVSSGGGGSGGGGSGGGGSSELTQDPAVSVALGQTVRITCQGDSLRSYYTNWFQQKPGQAPLLVVYAKNKRPSGIPDRFSGSSSGNTASLTITGAQAEDEADYYCNSRDSSGNHVVFGGGTKLTVLG
  binding: binds

B10: I007H08 (scFv)
scFv: QVQLQQSGPGLVKPSQILSLTCAISGDSVASNGAAWNWIRQSPSRGLEWLGRTYYRSKWYVDYAVSVKSRITINPDTSKNQFSLQLNSVTPEDTAVYYCARDRYDILTGYYYYGMDVWGQGTMVTVSSGGGGSGGGGSGGGGSQSALTQPASVSGSRGQSITISCTGTTGDVGGYDYVSWYQQHPGKAPKLLIYGNSNRPSGVPDRFSASKSGNTASLTISGLQAEDEADYFCNTYAPPGIIMFGGGTKLTVLG
  binding: binds

B11: I008A11 (scFv)
scFv: B10 scFv with N234S
  binding: binds

B12: I008A09 (scFv)
scFv: GVQLVQSGGGVVQPGGSLRLSCAASGFTFSSYGMHWVRQAPGKGLEWVAVISYDGSNKYYADSVKGRFTISRDNSKNTLYLQMNSLRAEDTAVYYCARDREAYYDILTGYYLYYYYMDVWGRGTTVTVSSGGGGSGGGGSGGGGSQSVLTQPASVSGSPGQSITISCTGTSSDVGGYNYVSWYQQHPGKAPKLMIYEGSKRPSGVSNRFSGSKSGNTASLTISGLQAEDEADYYCSSYTTGSTRVFGGGTKLTVLG
  binding: binds

B13: I016F02 (scFv)
scFv: GVQLVESGAEVKKPGASVKVSCRTSGYTFTSNSFSWVRQAPGQGLEWMGGIIPIFGTANYAQKLQGRVTITADELTRTVYMDLSSLRSEDTAVYYCATGMGDHYGMDVWGRGTLVTVSSGGGGSGGGGSGGGGSQSVLTQPASVSGSPGQSITISCTGTSSDVGGYNYVSWYQQHPGKAPKLMIYEGSKRPSGVSNRFSGSKSGNTASLTISGLQAEDEADYYCSSYTTRSTRVFGGGTKLTVLG
  binding: binds

B14: I061H01 (scFv)
scFv: QVQLVQSGGGLVKPGGSLRLSCAASGFTFSNAWMSWVRQAPGKGLQWVGRIKSKTDGGTTDYAAPVKGRFTISRDDSKNTLYLQMNSLKTEDTAVYYCTTFNPTYDILTGYYIGGYFQHWGQGTMVTVSSGGGGSGGGGSGGGGSQSVLTQPASVSGSPGQSITISCTGTSSDVGGYNYVSWYQQHPGKAPKLMIYEGSKRPSGVSNRFSGSKSGNTASLTISGLQAEDEADYYCSSYTTRSTRVFGGGTQLTVLG
  binding: binds

B15: I006D08 (scFv)
scFv: QVQLQQSGAEVKKPGSSVRVSCKASGGTFNNNAINWVRQAPGQGLEWMGGIIPMFGTAKYSQNFQGRVAITADESTSTASMELSSLRSEDTAVYYCARSRDLLLFPHYGMDVWGRGTMVTVSSGGGGSGGGGSGGGGSAFSSELTQDPAVSVALGQTVRVTCQGDSLRSYYASWYQQKPGQAPVLVIYGKNNRPSGIPDRFSGSSSGNTASLTITGAQAEDEADYYCNSRDSSGNHWVFGGGTELTVLG
  binding: binds

B16: I021B05 (scFv)
scFv: QVQQSGADVKKPGGSLRLSCAASGFTFSSYSMNWVRQAPGKGLEWVSSISSSSSYIYYADSVKGRFTISRDNAKNSLYLQMNSLRAEDTAVYYCAREGGNYDILTGYYIGNGAFDIWGRGTMVTVSSGGGGSGGGGSGGGGSQSVLTQPASVSGSPGQSITISCTGTSSDVGGYNYVSWYQQHPGKAPKLMIYEGSKRPSGVSNRFSGSKSGNTASLTISGLQAEDEADYYCSSYTTRSTRVFGGGTKLTVLG
  binding: binds

B17: I031G10 (scFv)
scFv: QVQLVQSGAEVKKPGSSVKVSCRVSGGSFTDDSINWLRQAPGQGLEWVGGTIPLANRANYAQKFRDRVTITADELTATVFLELTSLRSDDTALYYCARSSPPKWYDALTGDSSYHSAMDVWGRGTLVTVSSGGGGSGGGGSGGGGSAQSVVTQPPSVSAAPGQKVTISCSGSTSNIGRNYVSWYQQLPGTATKLLIYDNNKRPSGIPDRFSGSKSGTSATLGITGLQTGDEADYYCGTWDSSLRIYVFGTGTKVTVLG
  binding: binds

B18: I031G08 (scFv)
scFv: QVQLVQSGAEVKKPGSSVKVSCRASGGSFIDDSINWLRQAPGQGLEWVGGTIPLANRANYAQKFRDRATITADELTATVFLELTSLRSDDTALYYCARSSPPKWYDALTGHSSYHSAMDVWGRGTLVTVSSGGGGSGGGGSGGGGSAQSVLTQPPSASGTPGQRVTISCSGTNSNIGGNTVNWYQQLPGTAPRLLIYSNNQRPSGVPDRFSGSKSGTSASLAISGLQSEDEADYYCAARDDRLNAHVVFGGGTKVTVLG
  binding: binds

B19: I031C07 (scFv)
scFv: EVQLVQSGAEVKKPGSSVKVSCRASGGSFIDGSINWLRQAPGQGLEWVGGTIPLANRANYAQKFRDRVTITADELTAIVFLELTSLRSDDTALYYCARSSPPRWYDALTGDSSYHSAMDVWGQGTMVTVSSGGGGSGGGGSGGGGSAQSALTQPPSASGSPGQSVTISCSGTSSDIGDSNSVSWYQQHPGKAPKLLIYEVTKRPSGVPDRFAGSRSDNTASLTVSGLQTEDEADYYCSSSAARNHLVFGGGTKVTVLG
  binding: binds

B20: I012A06 (scFv)
scFv: QVQLQESGPGVVKPSQTLSLTCTVSGVSISSDSYYWSWIRQPAGKGPEWIGRIYPTGSTNYNPSLKSRVTISVDTSKNQFSLQLTSVTAADTAVYYCARGRWDYDLLTGEHLGYYFDYWGRGTLVTVSSGGGGSGGGGSGGGGSALSSELTQDPAVSVALGQTVRITCQGDTLRNYYASWYQQKPGQAPVLVIHSRNNRPSGIPDRFSGSSSGTTASLTITGSQAEDEADYYCNSRDSSGNVIFGGGTKLTVLG
  binding: binds

B21: I028A06 (scFv)
scFv: QVQLVESGGGLIQPGGSLRLSCAASGFSFGSYAMSWIRQAPGKGLEWVSTSTGRGGSTYYADSVKGRFTISRDNAKNSLYLQMNSLRAEDAAVYYCARGGDYDILTGLYYYGMDVWGKGTMVTVSSGGGGSGGGGSGGGGSSYVLTQPPSVSGTPGQRVTISCSGGRSNIGSNTVKWYQQLPGTAPKLLIYGNDQRPSGVPDRFSGSKSGTSASLAITGVQAEDEADYYCQSYDSSLRGSRVFGTGTKVTVLG
  binding: binds

B22: I031C03 (scFv)
scFv: QMQLVQSGAEVRKPGSSVKVSCKASGGSFSSHVFSWVRQAPGQGLEWVGGITPKFATPNYAQKFQHRVTITADELTRTVFMDLSGLRSEDTAVYYCARGYDSSAFRAFDIWGQGTLVTVSSGGGGSGGGGSGGGGSAQSVLTQPPSVSAAPGQKVTISCSGSSSNIGNNYVSWYQQFPGTAPKLLIYDNNNRPSGVPDRFSGSKSGTSATLGITGLQTGDEADYYCGTWDRSLSVVVFGGGTKVTVLG
  binding: binds
